Reference: patent US20110251144A1, “MOLECULAR MODULATORS OF THE WNT/BETA-CATENIN PATHWAY” (MASSACHUSETTS INSTITUTE OF TECHNOLOGY, priority 2008, published 2011)

What was measured:
[1] = test system: Wnt/β-catenin signaling (beta-catenin activated reporter, BAR); experiment: High throughput small molecule screen, beta-catenin activated reporter (BAR) in HT22 cells; type: cell-based, mouse; conditions: growth media and WNT3A stimulus
Protocol: Compounds were dissolved in dimethylsulphoxide (DMSO). For the primary screen, performed in duplicate, HT22 cells stably expressing the beta-catenin activated reporter (BAR) were cultured in growth medium (DMEM/10% FBS/1% antibiotic). 3000 cells per well were transferred to 384-well clear bottom plates (Nalgene Nunc; Rochester, N.Y.) in 30 μL of growth medium. The following day, […] of compound and 10 μL of either growth media or WNT3A conditioned media (E.C.50 dose) was transferred to the cells. The next day each well was imaged using transmitted light with the ImageXpress Micro (Molecular devices; Sunnyvale, Calif.) followed by the addition of 10 μL of Steady-Glo (Promega; Madison, Wis.) as per the manufacture's instructions, and luminescence measurement on an EnVision Multilabel plate reader (PerkinElmer; Waltham, Mass.). Viability was scored by analyzing the ImageXpress images. As described in detail in Seiler et al. (Seiler et al., Nucleic Acids Res. 36:D351 (2008), which is hereby incorporated by reference in its entirety), each compound well received an algebraically signed Z-score corresponding to the number of standard deviations it fell above or below the mean of a well-defined mock-treatment distribution of DMSO controls. […] The fold-increase over the background of DMSO controls for each treatment was also calculated. […]

[2] = test system: Axin2, Si/Gp100, Kit and other melanocytic genes; experiment: Quantitative PCR of endogenous gene targets in B16 melanoma cells; type: cell-based, murine; conditions: in the presence of WNT3A conditioned media
Protocol: Cells were cultured for approximately 72 hours until they reached 80-90% confluency. RNA was purified using the RNeasy kit using the manufacturer's protocol (Qiagen; Maryland, MD). cDNA was synthesized using Superscript Reverse Transcriptase (Invitrogen; Grand Island, N.Y.). […] Quantitative PCR results presented in the manuscript are representative of experiments performed on a minimum of three biologic replicates.

Structure (SMILES): Nc1nc2ccc(OC(F)(F)F)cc2s1 [riluzole]
- Activation of Wnt/β-catenin-responsive luciferase reporter in the primary screen [1]: activated Wnt/β-catenin signaling on their own as well as in synergy with WNT3A
- Transcription of endogenous Axin2, Si/Gp100 and Kit [2]: dose-dependent synergy
